## Cleaved PARP after 72 h of treatment

From a melanoma drug combination screen (doi:10.1371/journal.pone.0140310); values rounded.

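Human melanoma cell lines in 1,536-well plates were treated with two drugs together for 72 h, then fixed, stained and imaged. Each value is the cleaved-PARP-positive fraction of nuclei relative to DMSO-treated wells, in %, so that 100 equals the control and higher values mean more apoptosis. Every drug was used at one fixed concentration, the higher of two screened. These are primary screening values without error estimates. The marker varies much from line to line, for technical or biological reasons.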
This is part of the screen, not chosen by result.
A dash means that no value is listed here.

Drugs:
STA-4783, 30 nM: CN(NC(=O)CC(=O)NN(C)C(=S)c1ccccc1)C(=S)c1ccccc1
FH535, 5000 nM: Cc1cc([N+](=O)[O-])ccc1NS(=O)(=O)c1cc(Cl)ccc1Cl
CX-4945, 2000 nM: O=C(O)c1ccc2c(c1)nc(Nc1cccc(Cl)c1)c1ccncc12
ENMD-2076, 200 nM: Cc1cc(Nc2cc(N3CCN(C)CC3)nc(/C=C/c3ccccc3)n2)n[nH]1
NVP-BEZ235, 20 nM: Cn1c(=O)n(-c2ccc(C(C)(C)C#N)cc2)c2c3cc(-c4cnc5ccccc5c4)ccc3ncc21
ruxolitinib, 5000 nM: N#CC[C@H](C1CCCC1)n1cc(-c2ncnc3[nH]ccc23)cn1
sunitinib, 2000 nM: CCN(CC)CCNC(=O)c1c(C)[nH]c(/C=C2\C(=O)Nc3ccc(F)cc32)c1C
embelin, 6000 nM: CCCCCCCCCCCC1=C(O)C(=O)C=C(O)C1=O
SU6656, 2000 nM: CN(C)S(=O)(=O)c1ccc2c(c1)/C(=C/c1cc3c([nH]1)CCCC3)C(=O)N2
PF-562271, 400 nM: CN(c1ncccc1CNc1nc(Nc2ccc3c(c2)CC(=O)N3)ncc1C(F)(F)F)S(C)(=O)=O
darinaparsin, 2000 nM: C[As](C)SC[C@H](NC(=O)CC[C@H](N)C(=O)O)C(=O)NCC(=O)O

Combination,WM115,G-361,UACC-257,UACC-62,MZ2-MEL,A375
CX-4945 + SU6656,561,239,250,185,1230,-
PF-562271 + sunitinib,347,73.2,38.4,150,70.0,280
embelin + sunitinib,181,140,32.3,180,94.4,31.2
FH535 + ENMD-2076,148,266,276,194,141,279
FH535 + darinaparsin,110,239,109,35.7,77.7,218
ENMD-2076 + CX-4945,722,291,132,240,513,603
NVP-BEZ235 + PF-562271,219,214,26.6,181,67.5,584
ENMD-2076 + STA-4783,1290,576,69.8,175,-,-
FH535 + sunitinib,98.7,349,89.5,442,50.4,115
PF-562271 + SU6656,241,129,93.8,118,613,-
ENMD-2076 + PF-562271,449,60.7,88.9,162,162,219
FH535 + embelin,96.3,266,80.2,28.7,878,41.7
NVP-BEZ235 + SU6656,443,136,157,149,155,-
darinaparsin + PF-562271,186,114,265,229,263,85.2
NVP-BEZ235 + FH535,169,425,76.6,111,123,290
STA-4783 + darinaparsin,2010,813,186,149,159,-
darinaparsin + embelin,121,25.9,16.7,96.7,82.5,84.2
FH535 + STA-4783,4450,2150,170,150,71.1,196
darinaparsin + CX-4945,509,202,47.1,291,274,192
NVP-BEZ235 + CX-4945,648,450,40.7,321,33.4,125
ENMD-2076 + ruxolitinib,74.6,316,171,133,165,23.2
ENMD-2076 + embelin,87.4,68.6,22.7,214,141,109
sunitinib + darinaparsin,143,153,57.0,186,203,92.2
ruxolitinib + darinaparsin,78.7,112,79.7,190,186,63.4
SU6656 + STA-4783,1960,401,150,99.3,173,-
NVP-BEZ235 + sunitinib,370,255,80.2,158,52.1,283
STA-4783 + ruxolitinib,1300,682,66.4,144,73.6,-
NVP-BEZ235 + ruxolitinib,106,386,147,235,94.2,202
STA-4783 + NVP-BEZ235,817,410,134,186,-,-
CX-4945 + STA-4783,546,677,80.1,59.0,215,-

For reference, 3 entries once more:

| Combination | WM115 | G-361 | UACC-257 | UACC-62 | MZ2-MEL | A375 |
|---|---|---|---|---|---|---|
| CX-4945 + STA-4783 | 546 | 677 | 80.1 | 59.0 | 215 | - |
| STA-4783 + NVP-BEZ235 | 817 | 410 | 134 | 186 | - | - |
| FH535 + embelin | 96.3 | 266 | 80.2 | 28.7 | 878 | 41.7 |